Laboratory results as given in patent publication US20230348571A1.

Biological target: H1 NC99, an influenza hemagglutinin protein (influenza virus)
Assay: ELISA (FIG. 10)

B1: 46472-11 (antibody, V domains shown)
VH: EGQLLESGGGLVQPGGSLRLSCEASGFTFSRYAMTWIRQAPGKGLEWVSSITAIPYDRFYADSVKGRFTISRDDSKNMVYLQANSLRVEDTAVYYCVKMRTAVVGVTPLWGQGTLVTVSS
VL: AIQVTQSPSSLSASVGDRITITCRTSQGIRDDLGWYQQKPGKAPTLLIYGATNLQSGVPSRFSGSESGTDFTLTISSLQPEDFATYYCLQDYNYLFSFGPGTKVDIK
binding: no binding

B2: 46472-9 (antibody, V domains shown)
VH: QVQLQESGPGLVKPSETLSLTCIISGGSVSSGSYYWSWIRQPPGKGLEYIGYIFYSGNTNYNPSLKSRVTISVDTSKNQFSLRLTSVTAADTAVYHCASLPTYGSGRWGIDSWGQGTLVTVSS
VL: DIQMTQSPSSVSASVGDRVTITCRASQDISIWLTWYQQRPGKAPKLLIYAASALQRGVPSRFSGSGSGTDFTLTISSLQPEDFTTYFCQQGNSFPLTFGGGTKVEIK
binding: no binding

B3: 46472-1 (antibody, V domains shown)
VH: QVQLVQSGAEVKKDGSSVKVSCEASGGTFSDYAISWVRQAPGQGLEWMGRIIPILGITNYAQQFQTRVTITADKSTSAVYMELSSLRSKDTAIYYCAREVNYYSAFDDWGQGTQVTVSS
VL: EIVMTQSPDTLSVSPGERATLSCRASQNVSSNLAWYQQKPGQAPRLLIYDASTRATGIPARFSGSGSGTEFTLAISSLQSEDFAVYYCQQYNFWWTFGQGTKVDIK
binding: no binding

B4: 46472-12 (antibody, V domains shown)
VH: QVQLVQSGAEVQKPGASVKVSCKASGYRFDIFDINWVRQASGQGPEWMGWMNPNSGNTGYAHKFQGRVTMTRDSSTNTAYMELSSLTFEDTAVYYCARDRVERTGNVGFGYYAMDVWGQGTTVIVSS
VL: DIQMTQSPSSLSASVGDRVTITCRASQSITNYLNWYQQRPGKAPRLLIYAASSLQSGVPSRFSGSGSGTDFTLTISSLQPEDFGTFYCQQTYSSPSYTFGQGTKLEMK
binding: no binding

B5: 46472-15 (antibody, V domains shown)
V domain 1: QVQLVQSGSELKKPGASVKVSCKASGYTFTSYALNWVRQAPGQGLEWMGWININTGKPTYAQGFTGRFVLSLDTSVSTAYLQISSLKAEDTAVYYCARDFDLVVPSATYPPFYYHGMDVWGQGTTVTVSS
V domain 2: SSELTQDPAVSVALGQTVRITCQGDSLRTYYASWYQQKPGQAPILVIYGKNKRPSGIPDRFSGSSSGNTASLTITGAQAEDEADYYCNSRDSSGDQTFYVFGTGTQVTVL
binding: no binding

B6: 46472-3 (antibody, V domains shown)
VH: QVQLVESGGGVVQPGRSLRLSCAASGFTFSVYPMHWVRQAPGRGLEWVAVISYDGSNQYYADSVRGRFTISRDNSKNTLYLHMNSLRPEDTAVFYCARDRSATYYGPFDYWGQGTLVTVSS
VL: SSELTQDPAVSVALGQTVRITCQGDSLRSYSASWYQQKPSQAPVLVIYANNNRPSGIPDRFSGSNSGNTASLTITGAQAEDEADYYCNSRDNSGNHPVIFGGGTTLTVL
binding: no binding

B7: 46472-5 (antibody, V domains shown)
VH: QLRLQASGPGLVRPSVTLSLTCAVSGASVKSDKSYWGWFRQSPGKGLASIATIYYNGNVYYNPSLKSRVTLSLDTSTNQLSLKMRSVTAADTAIYYCARLDYSKQTWGQGILVTVSS
VL: DIVMTQSPRSLPVTPGEPASISCRSSQSLVHTNGYNYLDWYLQKPGQSPQLLIYLASNRASGVPGRFSGSGSGTDFTLKISRVEADDVGVYYCMQALQTPLTFGGGTRLEIK
binding: no binding

B8: 46472-2 (antibody, V domains shown)
VH: EVQLVQSGAEVKKPGESLRISCKGSGYRFITYWISWVRQMPGRGLEWMGKIDPSDSSTNYSPSFQGHVAISVDKSFNTAYLQWSRLNTSDTAMYYCAAGPTGYDLLTGQYFPYFNYWAQGTLVTVSS
VL: NFMLTQPHSVSESPGKTVSISCTRSSGSIASKFMQWYQQRPGSAPTILIYEDNLRPSGVPDRFSGSIDTSSNSALLTISGLKTEDEADYYCQSYHGSDVVFGGGTKLTVL
binding: no binding

B9: 46472-13 (antibody, V domains shown)
VH: EVQLVESGGGLVPPGGSLGLSCAASGFTFSEFWMSWVRQTPGKGLEWVANIGQDGNSKYYVDSVKGRFTISRDNAKSSLNLQMNSLRAEDTGVYYCARVTIVSSFTNRFDPWGQGVLVTVSS
VL: AIQLTQSPSSLSASIGDRVTFTCRASQDISNFLAWYQQKPGEPPKLLIYSVSTLQSGVPSRFSGSGSGTDFTLTISSLQSEDLATYYCQHRVTFGPGTKVGIK
binding: no binding

B10: 46472-8 (antibody, V domains shown)
VH: EVQLVESGGGFIQPGGSVRLSCSASGFNVYDNYFSWVRQAPGRGPEWVSVIYRDGATRYAESVQGRFTMFRDNSRKTLYLQMNRLKAGDTAVYFCALGRKDYGDYYRWGQGTLVTVSS
VL: EIVLTQSPGTLSLSPGETATLSCRAGQSVRSRFLAWYQQKPGQSPRVLIYGASNRASGVPDRFSGSGSGTDFTLTITRLEPEDVAVYYCQQYAPSPPWYIFGQGTKLEIK
binding: no binding

B11: 46472-7 (antibody, V domains shown)
VH: GVQLVESGGGLVQPGGSLRLSCSASGFTFSSYAMHWVRQAPGKGLEYVSGINVNGYDTYYADSVKGRFTISRDNSKNTLFLQMISLTAEDTALYYCVKEDTPLVFDSWGQGTLVTVSS
VL: DIQMTQSPSTLSASVGDRVTITCRASQFINSWLAWYQQKPGKAPKLLIYAASSLQSGVPSRFSGSGSGTEFTLTINSLQPDDFATYYCQQYDSYSTFGQGTKVEIK
binding: no binding

B12: 46472-4 (antibody, V domains shown)
VH: EVPLLESGGGLVQPGGSLRLSCVASGFPFSSFALSWVRQAPGKGLEWVSTINTNGGTTYYLDSVKGRFTVSRDNSKNTLFLQMSSLRAEDTAIYYCAKDLLSHSGTYSAGSTFDYWGQGTLVIVSS
VL: DIQMTQSPSSLSASVGDRVTITCRASQSIGVYLNWYQQKPGKAPKLLIHATSNLQSGVPSRFSCSGSGTEFTLTISSLQPEDFATYYCQESYSTNTFGQGTKLEIK
binding: no binding

B13: 46472-10 (antibody, V domains shown)
VH: EVHLVESGGGLIQPGGSLKLSCAASGFAVSGYYMIWVRQAPGKGLEWVSVIFTSGRTYYADSAKGRFTISRDSSKNTLYLQMDSLRAEDTAVYYCAGFLPVYNNGWSYFDSWGQGTLVTVSS
VL: QSVLTQPPSASGTPGQRVTISCSGSRPNIGNNKVNWYQQLPGTAPKVLIYGNNQRPSGVPDRFSGSKSATSASLAISGLQSEDEADYYCAVWDDSLNGPVFGGGTKLTVL
binding: no binding

B14: 46472-14 (antibody, V domains shown)
VH: EVLLVESGGGVIQPGASLRLSCEPSGTTVSSNFWTWVRQAPGRRLEHVAIIYSGDATYYADSVKGRFTIFRDNSKNMLFLEMNNLKVADSAIYFCVRGRTYWGQGTLVSVSS
VL: EIVMTQSPATLSLSPGDTATLSCRASQSVASNLAWYQQKPGQAPRLLVSGASTRATGIPPRFSGSGSGTEFTLTISSLQSEDFAVYYCQQYNRWLWTFGQGTKVEIK
binding: no binding

These are yes or no findings as the source states them, for the method shown.
